These are yes or no findings as the source states them, for the method shown. In cells and extracts the contact can be indirect.
Legend:
[1] = target: PCNA (human (endogenous in HeLa Kyoto)) (UniProt P12004); experiment: proximity ligation; Duolink in situ PLA on fixed HeLa Kyoto cells, non-S-phase cells
[2] = target: PCNA (human (endogenous in HeLa Kyoto)) (UniProt P12004); experiment: condition: only after replication stress (10 mM HU for 1 h or 150 µM APH for 30 min); proximity ligation; Duolink in situ PLA on fixed HeLa Kyoto cells, S-phase cells after replication stress (10 mM HU for 1 h or 150 µM APH for 30 min)

Protein sequences, listed by entry. Tags and fused reporters are not part of them.
UniProt P12004: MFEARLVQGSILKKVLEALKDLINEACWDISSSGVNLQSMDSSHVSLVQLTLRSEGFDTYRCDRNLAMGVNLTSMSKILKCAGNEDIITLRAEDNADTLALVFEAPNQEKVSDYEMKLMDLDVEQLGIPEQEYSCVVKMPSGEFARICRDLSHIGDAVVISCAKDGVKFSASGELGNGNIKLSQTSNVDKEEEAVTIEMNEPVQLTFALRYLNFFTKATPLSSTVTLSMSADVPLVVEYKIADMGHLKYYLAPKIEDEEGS
UniProt Q9UNS1: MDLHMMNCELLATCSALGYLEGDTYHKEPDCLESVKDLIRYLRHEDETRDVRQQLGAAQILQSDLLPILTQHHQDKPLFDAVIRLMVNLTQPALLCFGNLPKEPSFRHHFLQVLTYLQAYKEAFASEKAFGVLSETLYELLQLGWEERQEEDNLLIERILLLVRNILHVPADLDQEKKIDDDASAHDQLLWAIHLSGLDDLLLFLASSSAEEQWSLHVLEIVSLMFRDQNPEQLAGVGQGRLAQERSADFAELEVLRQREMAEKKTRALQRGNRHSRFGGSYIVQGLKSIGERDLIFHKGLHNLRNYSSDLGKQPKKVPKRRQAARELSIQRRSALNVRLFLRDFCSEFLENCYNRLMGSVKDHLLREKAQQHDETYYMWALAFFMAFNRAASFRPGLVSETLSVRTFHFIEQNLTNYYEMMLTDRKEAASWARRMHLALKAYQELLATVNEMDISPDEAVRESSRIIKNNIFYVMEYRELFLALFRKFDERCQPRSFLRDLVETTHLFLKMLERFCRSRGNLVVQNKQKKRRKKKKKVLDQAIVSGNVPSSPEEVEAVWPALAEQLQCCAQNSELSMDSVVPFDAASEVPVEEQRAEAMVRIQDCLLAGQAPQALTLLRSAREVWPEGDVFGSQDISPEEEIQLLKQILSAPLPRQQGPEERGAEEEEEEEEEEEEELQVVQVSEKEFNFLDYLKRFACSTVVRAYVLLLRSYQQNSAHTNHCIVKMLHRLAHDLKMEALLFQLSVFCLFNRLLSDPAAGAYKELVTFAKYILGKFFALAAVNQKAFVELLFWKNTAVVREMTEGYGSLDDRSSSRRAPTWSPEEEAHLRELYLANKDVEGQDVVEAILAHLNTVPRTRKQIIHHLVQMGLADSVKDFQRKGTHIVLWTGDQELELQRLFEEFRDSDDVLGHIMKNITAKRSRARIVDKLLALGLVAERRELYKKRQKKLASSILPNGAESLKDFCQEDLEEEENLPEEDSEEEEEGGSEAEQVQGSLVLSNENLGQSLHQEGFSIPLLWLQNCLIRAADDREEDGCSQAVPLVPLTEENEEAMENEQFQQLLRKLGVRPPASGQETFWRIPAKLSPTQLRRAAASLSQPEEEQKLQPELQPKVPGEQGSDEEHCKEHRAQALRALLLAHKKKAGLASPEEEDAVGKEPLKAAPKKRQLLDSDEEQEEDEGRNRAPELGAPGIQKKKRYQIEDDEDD

## Timeless (from UniProt Q9UNS1 1-1208)
[1]
  binding: no binding (condition: non-S-phase cells)
[2]
  binding: no binding
